Assay: Food intake, fasting body weight, small intestinal weight and length in treated mice
Assay type: in vivo, swiss-webster mice
Conditions: for Food Intake / Fasting Body Weight / Length Small Intestine / Weight Small Intestine: mice; for Food Intake: s.c. once a day for three days (PYY, TGFα 300 μg/kg; somatostatin 120 μg/kg), feed per mouse over the three day period; for Fasting Body Weight / Length Small Intestine / Weight Small Intestine: s.c. once a day for three days; for Fasting Body Weight: after fast, prior to sacrifice; for Length Small Intestine / Weight Small Intestine: after sacrifice; for small intestine weight, comparison between treatment groups: mouse, in vivo

| Compound | Food Intake | Fasting Body Weight | Length Small Intestine | Weight Small Intestine | small intestine weight, comparison between treatment groups |
| --- | --- | --- | --- | --- | --- |
| C[C@H](N)C(=O)NCC(=O)N[C@H]1CSSC[C@@H](C(=O)O)NC(=O)[C@H](CO)NC(=O)[C@H]([C@@H](C)O)NC(=O)[C@H](Cc2ccccc2)NC(=O)[C@H]([C@@H](C)O)NC(=O)[C@H](CCCCN)NC(=O)[C@H](Cc2c[nH]c3ccccc23)NC(=O)[C@H](Cc2ccccc2)NC(=O)[C@H](Cc2ccccc2)NC(=O)[C@H](CC(N)=O)NC(=O)[C@H](CCCCN)NC1=O [Somatostatin, somatostatin] | 9.1 g | 27.7 g | 467 mm | 2.127 g | – |
| Transforming Growth Factor alpha [TGFα] | 11.0 g | 28.8 g | 461 mm | 1.999 g | no significant differences |
| PYY: 36 amino acid hormonal peptide, produced by "L type" endocrine cells; member of the pancreatic polypeptide family [Peptide YY] | 9.2 g | 27.5 g | 454 mm | 1.652 g | no significant differences |
